Literature values as cited in US20070293576A1, “Pharmaceutical Methods, Dosing Regimes And Dosage Forms For The Treatment Of Alzheimer's Disease” (Myriad Genetics, Incorporated, priority 2003, published 2007).
At least one structure is not confirmed: it was looked up by name or label, or the drawing left a doubt.

System: patients with Alzheimer's disease
Details: clinical trials; rofecoxib at 25 mg daily; cited from earlier work

Cc1ccc(-c2cc(C(F)(F)F)nn2-c2ccc(S(N)(=O)=O)cc2)cc1 [Celecoxib]
efficacy for treating AD: failed to show efficacy
